The record followed here is article PMC4368784.

Results are given in words; binding and its absence hold for the method and conditions named. In cells and extracts the contact can be indirect. Some binding calls cover weakened binding; strength is not graded here. Where a sequence is shown, tags or fusion partners need not be part of it.

Assay [1] concerns the target T1, DIM-7-3xFLAG (N. crassa) (UniProt Q1K7K7).
T1 sequence: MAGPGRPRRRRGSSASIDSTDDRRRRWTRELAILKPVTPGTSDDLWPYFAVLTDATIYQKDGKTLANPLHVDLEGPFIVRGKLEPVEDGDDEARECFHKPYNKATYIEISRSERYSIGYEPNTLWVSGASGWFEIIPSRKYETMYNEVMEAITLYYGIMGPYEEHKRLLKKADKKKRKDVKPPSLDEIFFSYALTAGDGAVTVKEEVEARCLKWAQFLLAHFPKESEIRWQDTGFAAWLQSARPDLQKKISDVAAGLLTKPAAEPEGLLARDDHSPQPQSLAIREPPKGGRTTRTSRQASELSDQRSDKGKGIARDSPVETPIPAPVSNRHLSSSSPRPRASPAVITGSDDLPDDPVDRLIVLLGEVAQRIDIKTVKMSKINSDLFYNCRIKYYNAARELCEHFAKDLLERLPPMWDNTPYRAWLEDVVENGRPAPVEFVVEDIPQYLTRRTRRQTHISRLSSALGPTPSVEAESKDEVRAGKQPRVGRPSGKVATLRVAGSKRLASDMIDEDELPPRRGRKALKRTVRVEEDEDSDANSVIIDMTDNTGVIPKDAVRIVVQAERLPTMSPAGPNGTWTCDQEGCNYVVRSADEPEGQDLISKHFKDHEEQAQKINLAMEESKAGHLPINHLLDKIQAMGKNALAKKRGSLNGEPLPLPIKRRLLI
The assay is described as follows: co-IP; anti-FLAG immunoprecipitation of 3xFLAG-tagged DCDC members from nuclei of dim-3+ (WT) and dim-3 N. crassa strains; partner detected by western blot and normalised to bait level.

Assay [2] concerns the target T2, DIM-9-3xFLAG (N. crassa) (UniProt Q7RVP2).
T2 sequence: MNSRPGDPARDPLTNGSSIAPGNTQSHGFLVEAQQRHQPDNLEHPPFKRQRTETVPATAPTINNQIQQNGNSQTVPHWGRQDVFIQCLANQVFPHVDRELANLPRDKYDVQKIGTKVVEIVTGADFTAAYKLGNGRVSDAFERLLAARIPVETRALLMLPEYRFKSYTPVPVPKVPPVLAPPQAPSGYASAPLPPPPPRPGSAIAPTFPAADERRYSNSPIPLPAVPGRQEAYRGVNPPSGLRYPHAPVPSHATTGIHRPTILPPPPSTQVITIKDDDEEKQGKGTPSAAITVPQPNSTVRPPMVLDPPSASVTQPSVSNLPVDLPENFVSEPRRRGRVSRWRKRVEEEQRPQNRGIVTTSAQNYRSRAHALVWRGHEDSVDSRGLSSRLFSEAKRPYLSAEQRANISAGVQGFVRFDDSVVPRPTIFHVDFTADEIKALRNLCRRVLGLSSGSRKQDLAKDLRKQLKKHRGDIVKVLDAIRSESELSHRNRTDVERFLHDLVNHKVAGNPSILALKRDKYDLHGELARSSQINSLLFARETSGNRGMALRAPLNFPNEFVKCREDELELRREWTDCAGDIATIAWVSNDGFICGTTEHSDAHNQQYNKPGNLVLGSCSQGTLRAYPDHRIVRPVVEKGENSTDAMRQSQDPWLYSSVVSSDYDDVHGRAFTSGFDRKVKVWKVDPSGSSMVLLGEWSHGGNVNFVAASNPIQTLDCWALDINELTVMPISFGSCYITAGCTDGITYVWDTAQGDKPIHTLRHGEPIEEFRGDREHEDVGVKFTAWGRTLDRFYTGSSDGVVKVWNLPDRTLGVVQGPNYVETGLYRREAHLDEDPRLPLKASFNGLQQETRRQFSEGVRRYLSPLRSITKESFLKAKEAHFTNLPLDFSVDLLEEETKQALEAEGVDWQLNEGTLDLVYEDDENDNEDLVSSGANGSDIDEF
The assay is described as above.

B1: DIM-9-3xHA (protein, UniProt Q7RVP2 1-943)
chain: MNSRPGDPARDPLTNGSSIAPGNTQSHGFLVEAQQRHQPDNLEHPPFKRQRTETVPATAPTINNQIQQNGNSQTVPHWGRQDVFIQCLANQVFPHVDRELANLPRDKYDVQKIGTKVVEIVTGADFTAAYKLGNGRVSDAFERLLAARIPVETRALLMLPEYRFKSYTPVPVPKVPPVLAPPQAPSGYASAPLPPPPPRPGSAIAPTFPAADERRYSNSPIPLPAVPGRQEAYRGVNPPSGLRYPHAPVPSHATTGIHRPTILPPPPSTQVITIKDDDEEKQGKGTPSAAITVPQPNSTVRPPMVLDPPSASVTQPSVSNLPVDLPENFVSEPRRRGRVSRWRKRVEEEQRPQNRGIVTTSAQNYRSRAHALVWRGHEDSVDSRGLSSRLFSEAKRPYLSAEQRANISAGVQGFVRFDDSVVPRPTIFHVDFTADEIKALRNLCRRVLGLSSGSRKQDLAKDLRKQLKKHRGDIVKVLDAIRSESELSHRNRTDVERFLHDLVNHKVAGNPSILALKRDKYDLHGELARSSQINSLLFARETSGNRGMALRAPLNFPNEFVKCREDELELRREWTDCAGDIATIAWVSNDGFICGTTEHSDAHNQQYNKPGNLVLGSCSQGTLRAYPDHRIVRPVVEKGENSTDAMRQSQDPWLYSSVVSSDYDDVHGRAFTSGFDRKVKVWKVDPSGSSMVLLGEWSHGGNVNFVAASNPIQTLDCWALDINELTVMPISFGSCYITAGCTDGITYVWDTAQGDKPIHTLRHGEPIEEFRGDREHEDVGVKFTAWGRTLDRFYTGSSDGVVKVWNLPDRTLGVVQGPNYVETGLYRREAHLDEDPRLPLKASFNGLQQETRRQFSEGVRRYLSPLRSITKESFLKAKEAHFTNLPLDFSVDLLEEETKQALEAEGVDWQLNEGTLDLVYEDDENDNEDLVSSGANGSDIDEF
Take B1: the binding result in assay [1] was “binds”.

B2: DIM-5 (enzyme, UniProt Q8X225 1-331)
chain: MEKAFRPHFFNHGKPDANPKEKKNCHWCQIRSFATHAQLPISIVNREDDAFLNPNFRFIDHSIIGKNVPVADQSFRVGCSCASDEECMYSTCQCLDEMAPDSDEEADPYTRKKRFAYYSQGAKKGLLRDRVLQSQEPIYECHQGCACSKDCPNRVVERGRTVPLQIFRTKDRGWGVKCPVNIKRGQFVDRYLGEIITSEEADRRRAESTIARRKDVYLFALDKFSDPDSLDPLLAGQPLEVDGEYMSGPTRFINHSCDPNMAIFARVGDHADKHIHDLALFAIKDIPKGTELTFDYVNGLTGLESDAHDPSKISEMTKCLCGTAKCRGYLW
As to B2, the binding result in assay [1] and in assay [2] was “binds” in each case.
